# Data published in PubChem BioAssay AID1347075 (National Center for Advancing Translational Sciences (NCATS), 2019).
# In all, about 400,000 compounds went through this assay and about 5,500 (1.4%) were called active. The shares of active, inactive and inconclusive entries below differ from those in the screen. Calls come from the whole dose curve; as a rule, active = well fitted cell-killing curve with a large enough effect; inconclusive = small, poorly fitted or top-dose-only effect, or effect the other way; inactive = flat fitted curve, though single readings scatter. Potencies of inconclusive entries are doubtful fits and often do not repeat.
# Experiment: qHTS assay for MDR1-selective chemotherapeutics: Primary screen using the parental adenocarcinoma cell KB-3-1; note: nearly all actives have a fitted effect of over 60% in size
# Conditions: KB-3-1 viability, CellTiter-Glo ATP luminescence, 72 h; activity change, negative = cytotoxic: at 46.1 µM (top of the series)
# Summary of the method: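 Viability of parental KB-3-1 cells, measured by CellTiter-Glo luminescence, followed a 72 h incubation at 37 °C with pinned compounds in phenol-red-free DMEM containing 10% FBS.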
# % is set by controls: 0 for no effect and ±100 for the full control effect; potency is the fitted concentration of half-maximal effect.
SMILES,Potency,"activity change, negative = cytotoxic"
CC1(C)CC(NC(=O)c2ccc(Cl)c(S(=O)(=O)N(Cc3ccccc3)c3ccccc3)c2)CC(C)(C)N1,"inconclusive: 29.1 µM [cytotoxic, single point]",–
CCN(CC)C(=O)NC1CCCCCCC1,inactive,–
O=C(/C=C/c1ccncc1)c1ccc2c(c1)OCCO2,active: 23.1 µM,–
O=C(Nc1nc2ccccc2[nH]1)C1CCC1,"inconclusive: 29.1 µM [cytotoxic, single point]",–
CCc1cc(=O)oc2c(C)c(OCC(=O)N3CCCc4ccccc43)ccc12,inactive,–
CCOc1ccc(NC(=O)c2cc3ccccc3cc2O)cc1,inactive,–
COc1ccc(-c2oc(/N=C/N3CCOCC3)c(C#N)c2-c2ccc(OC)cc2)cc1,"inconclusive: 23.1 µM [rising, single point]",–
CCC(C)(c1nnnn1-c1c(C)cccc1C)N(N=O)c1cccc(C(F)(F)F)c1 (stereo not given),"inconclusive: 29.1 µM [cytotoxic, single point]",–
COc1ccccc1N(CC(=O)N/N=C/c1c(O)ccc2ccccc12)S(C)(=O)=O,"inconclusive: 2.06 µM [cytotoxic, full curve]",–
Cc1csc(SCC(=O)c2c(N)n(CC(C)C)c(=O)n(C)c2=O)n1,inactive,–
CO/N=C(/CS(=O)(=O)c1ccc(Br)cc1)c1ccc(OC)cc1,"inconclusive: 23.1 µM [cytotoxic, single point]",–
Clc1ccc2c(c1)-c1ccccc1C1=NCCN12,active: 10.3 µM,–
Cc1ccc(NC(=S)NNC(=O)c2ccc(N3CCOCC3)c([N+](=O)[O-])c2)cc1Cl,"inconclusive: 29.1 µM [cytotoxic, single point]",–
CC(=O)N1CCC(C(=O)Nc2nc(-c3ccccc3)ns2)CC1,"inconclusive: 25.9 µM [cytotoxic, partial curve, poor fit]",–
CC(Sc1nc(-c2ccccc2)cc(C(F)(F)F)n1)C(=O)O (stereo not given),inactive,–
O=C(Nc1ccn(CCCNCC2CCCCC2)c(=O)n1)OCc1ccccc1,inactive,–
COc1ccc2nc(C)cc(N3CCC(C(N)=O)CC3)c2c1,"inconclusive: 29.1 µM [rising, single point]",–
COc1ccc2c(c1)C(CC(=O)NN)CCC2 (stereo not given),active: 23.1 µM,–
CCN(CC)CCN1CCN(c2cncc(-c3ccc4ccccc4c3)n2)CC1,"inconclusive: 29.1 µM [cytotoxic, single point]",–
CC1(C)CC(N=c2cc(-c3ccccc3)oc3ccc(Cl)cc23)CC(C)(C)N1,active: 20.6 µM,–
COc1ccc(CNc2ccc3c(c2)ncn3C)cc1OC,"inconclusive: 29.1 µM [cytotoxic, single point]",–
COc1cc(C(=O)Oc2c(CN3CCOCC3)cc(Cl)c3cccnc23)cc(OC)c1OC,"inconclusive: 23.1 µM [cytotoxic, single point]",–
O=C(NC1CCCCC1)C1c2ccccc2OCC(=O)N1Cc1cccnc1 (stereo not given),inactive,–
O=C(C[C@H]1C[C@H](C(=O)N2CCOCC2)[C@@]2(CCC3CCCC3)c3[nH]c4cc(-c5ccco5)ccc4c3CCN2C1=O)NCc1cccc(C(F)(F)F)c1,"inconclusive: 29.1 µM [cytotoxic, single point]",–

SMILES,Potency,"activity change, negative = cytotoxic"
COc1ccc(Cl)cc1Nc1nc(-c2sc(NC(=O)CC(C)C)nc2C)cs1,"inconclusive: 29.1 µM [cytotoxic, partial curve, poor fit]",–
COc1cc2nc3n(c(=O)c2cc1OC)-c1cc2ccccc2cc1C(=O)NC3CC(C)C (stereo not given),active: 18.4 µM,–
N#CC(c1ccc(Cl)cc1)c1ccc2c(C(F)(F)F)cc(C(F)(F)F)nc2n1 (stereo not given),"inconclusive: 29.1 µM [cytotoxic, partial curve, poor fit]",–
CCOc1ccccc1N1CCN(Cc2ccc(OC)c(OC)c2)CC1,inactive,–
O=C(Nc1ccc(S(=O)(=O)N2CCCC2)cc1)c1ccc(CN2CCOCC2)cc1,"inconclusive: 1.64 µM [cytotoxic, partial curve, poor fit]",–
Cc1c(C(=O)N2CCC(C)CC2)oc2ccc3c(c12)C(O)CC1(CCCCC1)O3 (stereo not given),"inconclusive: 18.4 µM [cytotoxic, single point]",–
N#Cc1ccc(Cl)cc1NC(=O)CN1C(=O)C(=O)N(CCC2=CCCCC2)C1=O,inactive,–
COc1cccc(Nc2nc3ccccc3nc2NS(=O)(=O)c2cccs2)c1,"inconclusive: 25.9 µM [cytotoxic, single point]",–
Cc1cc(NC(=O)CSc2nc3cc4c(cc3c(=O)n2CCc2ccccc2)OCO4)no1,"inconclusive: 10.3 µM [cytotoxic, partial curve, poor fit]",–
Cc1c(Cl)cccc1-c1ccc(/C=N/n2cnnc2)o1,"inconclusive: 8.2 µM [cytotoxic, partial curve]",–
CC(=O)c1cccc(NC(=O)CSc2n[nH]c(-c3ccncc3)n2)c1,inactive,–
CN1CCN(c2nc3c(c(=O)n(C)c(=O)n3C)n2CCSc2nnnn2-c2ccccc2)CC1,"inconclusive: 0.0046 µM [rising, full curve, poor fit]",–
CCN1C(=O)/C(=C/c2nc3ccccc3c(=O)n2-c2ccccc2)c2ccccc21,active: 23.1 µM,–
COc1ccccc1NC(=O)CN1C(=O)C2(SCC(=O)N2c2ccc(F)c(F)c2)c2ccccc21 (stereo not given),"inconclusive: 0.0326 µM [cytotoxic, full curve]",–
CCCCCC(=O)Nc1cccc2ccccc12,"inconclusive: 16.4 µM [rising, partial curve, poor fit]",–
CCOc1ccc(CN2CCN(Cc3cc4ccccc4[nH]3)CC2CCO)cc1 (stereo not given),"inconclusive: 29.1 µM [cytotoxic, partial curve, poor fit]",–
C#CC[N+](C)(C)CCN1C(=O)C2C(c3ccccc3)C=CC(c3ccccc3)C2C1=O (stereo not given),–,inconclusive: 1.63%
C(=N\Nc1ccccn1)/c1c[nH]c2ccccc12,inactive,–
COc1ccc(OC)c(-n2c(-c3ccccc3)n[nH]c2=S)c1,inactive,–
CC1CCN(S(=O)(=O)c2ccc(C(=O)Nc3nnc(-c4ccncc4)o3)cc2)CC1,"inconclusive: 14.6 µM [cytotoxic, partial curve]",–
C=C(C)COc1ccc2c(C)c(C)c(=O)oc2c1OCC(=C)C,"inconclusive: 23.1 µM [cytotoxic, single point]",–
COc1cccc(/C=N/n2c(N)c(S(=O)(=O)c3cccs3)c3nc4ccccc4nc32)c1OC,"inconclusive: 11.6 µM [cytotoxic, partial curve, poor fit]",–
CCOC(=O)C1(CCOC)CCN(Cc2cc3ccccc3s2)CC1,"inconclusive: 5.8 µM [cytotoxic, partial curve]",–
Clc1ccc(OCc2nnc(SCCN3CCCCC3)n2Cc2ccco2)cc1,"inconclusive: 29.1 µM [cytotoxic, single point]",–

SMILES,Potency,"activity change, negative = cytotoxic"
COC(=O)C1=C(C)NC(C)=C(C(=O)OC)C1C1CC=CCC1 (stereo not given),"inconclusive: 16.4 µM [cytotoxic, single point]",–
O=C1NCC2=C1C(c1ccc(Br)cc1)Nc1ccccc1N2 (stereo not given),"inconclusive: 2.91 µM [cytotoxic, partial curve, poor fit]",–
O=C(ONC(=O)C1C2C=CC(C2)C1C(=O)NOC(=O)c1ccccc1)c1ccccc1 (stereo not given),"inconclusive: 29.1 µM [cytotoxic, single point]",–
O=C(Nc1cccc(S(=O)(=O)N2CCCC2)c1)c1ccccc1OC(F)F,inactive,–
Cc1ccc(C)c(N(CC(=O)NC(C)C)C(=O)CCC(=O)Nc2ccccn2)c1,inactive,–
COc1ccc(C(=O)Nc2cc(C)c(O)c(-c3nc4ccccc4s3)c2)cc1OC,"inconclusive: 32.6 µM [cytotoxic, single point]",–
CCOc1ccc(NC(=O)c2cc3ccccc3cc2OC)cc1,"inconclusive: 18.4 µM [cytotoxic, single point]",–
COC(=O)CCC(=O)OC1(C)C(=O)C=C2C=C(C3CC3)N(CCCOC(C)C)C=C2C1=O (stereo not given),"inconclusive: 3.26 µM [cytotoxic, partial curve]",–
O=C(Nc1cccc(-c2cn3cccnc3n2)c1)c1cc(Br)ccc1Cl,"inconclusive: 0.0291 µM [cytotoxic, full curve]",–
O=C(C[n+]1cc(-c2ccc(F)cc2)n2c1CCC2)Nc1nc(-c2ccccc2)cs1,"inconclusive: 29.1 µM [cytotoxic, single point]",–
CC(=O)Nc1ccc(NC2=C(Cl)C(=O)c3ccccc3C2=O)cc1,active: 16.4 µM,–
O=C(NCCCO)c1c(O)c2cccc3c2n(c1=O)CCC3,active: 5.8 µM,–
O=C(NCc1ccccc1F)c1cccc(S(=O)(=O)N2CCCCC2)c1,inactive,–
CCC(C)(C)NC(=O)C(c1ccc(F)cc1)N(Cc1ccccc1)C(=O)c1cnccn1 (stereo not given),"inconclusive: 23.1 µM [rising, single point]",–
O=C1/C(=C/c2cccnc2)SC(=S)N1CC1CCCO1 (stereo not given),"inconclusive: 18.4 µM [cytotoxic, single point]",–
Cc1ccc(-c2nnn3c2nc(NCC(C)c2ccccc2)c2ccccc23)cc1 (stereo not given),inactive,–
O=c1cc(C(F)(F)F)[nH]c2c(OC(F)(F)F)cccc12,"inconclusive: 25.9 µM [cytotoxic, single point]",–
COc1ccccc1C(=O)NC(=O)COC(=O)c1cnccn1,inactive,–
COC(=O)c1ccccc1S(=O)(=O)N1CCC(C(=O)N(C)CCOc2ccccc2)CC1,inactive,–
Cc1cc(Br)cn2c(Cc3ccccc3)c(C3CCCCC3)nc12,"inconclusive: 18.4 µM [cytotoxic, single point]",–
COC(=O)c1c(NC(=O)CSc2ncn[nH]2)sc(C)c1C,inactive,–
CCN(CC)CCCN(Cc1cc2cc3c(cc2[nH]c1=O)OCO3)C(=S)Nc1ccc(OC)cc1,"inconclusive: 16.4 µM [cytotoxic, partial curve]",–

# Sorted by molar mass (descending): 17 of the compounds above.
SMILES,Potency,"activity change, negative = cytotoxic"
COc1cc2nc3n(c(=O)c2cc1OC)-c1cc2ccccc2cc1C(=O)NC3CC(C)C (stereo not given),active: 18.4 µM,–
Clc1ccc(OCc2nnc(SCCN3CCCCC3)n2Cc2ccco2)cc1,"inconclusive: 29.1 µM [cytotoxic, single point]",–
COc1ccc(-c2oc(/N=C/N3CCOCC3)c(C#N)c2-c2ccc(OC)cc2)cc1,"inconclusive: 23.1 µM [rising, single point]",–
Cc1c(C(=O)N2CCC(C)CC2)oc2ccc3c(c12)C(O)CC1(CCCCC1)O3 (stereo not given),"inconclusive: 18.4 µM [cytotoxic, single point]",–
Cc1ccc(C)c(N(CC(=O)NC(C)C)C(=O)CCC(=O)Nc2ccccn2)c1,inactive,–
CCN1C(=O)/C(=C/c2nc3ccccc3c(=O)n2-c2ccccc2)c2ccccc21,active: 23.1 µM,–
O=C(NCc1ccccc1F)c1cccc(S(=O)(=O)N2CCCCC2)c1,inactive,–
Cc1csc(SCC(=O)c2c(N)n(CC(C)C)c(=O)n(C)c2=O)n1,inactive,–
O=C1NCC2=C1C(c1ccc(Br)cc1)Nc1ccccc1N2 (stereo not given),"inconclusive: 2.91 µM [cytotoxic, partial curve, poor fit]",–
COc1ccccc1C(=O)NC(=O)COC(=O)c1cnccn1,inactive,–
CCOc1ccc(NC(=O)c2cc3ccccc3cc2O)cc1,inactive,–
O=C(NCCCO)c1c(O)c2cccc3c2n(c1=O)CCC3,active: 5.8 µM,–
COc1ccc2nc(C)cc(N3CCC(C(N)=O)CC3)c2c1,"inconclusive: 29.1 µM [rising, single point]",–
O=c1cc(C(F)(F)F)[nH]c2c(OC(F)(F)F)cccc12,"inconclusive: 25.9 µM [cytotoxic, single point]",–
Clc1ccc2c(c1)-c1ccccc1C1=NCCN12,active: 10.3 µM,–
C(=N\Nc1ccccn1)/c1c[nH]c2ccccc12,inactive,–
O=C(Nc1nc2ccccc2[nH]1)C1CCC1,"inconclusive: 29.1 µM [cytotoxic, single point]",–

# In a second layout: entries from further up.
SMILES	Potency	activity change, negative = cytotoxic
Cc1c(Cl)cccc1-c1ccc(/C=N/n2cnnc2)o1	inconclusive: 8.2 µM [cytotoxic, partial curve]	–
CC(=O)c1cccc(NC(=O)CSc2n[nH]c(-c3ccncc3)n2)c1	inactive	–
